Assay results from patent US8586599B2, “Polymorphic forms of 6-(1-methyl-1H-pyrazol-4-yl)-2-{3-[5-(2-morpholin-4-yl-ethoxy)-pyrimidin-2-yl]-benzyl}-2H-pyridazin-3-one dihydrogenphosphate and processes of manufacturing thereof” (Merck Patent GmbH, priority 2008, dated 2013).
At least one compound was matched to its structure with a doubt left.

Test: Kinetic solubility determination in water:acetone 30:70 (v:v) after 2 hours (Example 14)
Details: solid-state residue after 2 h in water:acetone (30:70, v:v), by PXRD

Cn1cc(-c2ccc(=O)n(Cc3cccc(-c4ncc(OCCN5CCOCC5)cn4)c3)n2)cn1.O=P(O)(O)O [crystalline modification A1, 6-(1-methyl-1H-pyrazol-4-yl)-2-{3-[5-(2-morpholin-4-yl-ethoxy)-pyrimidin-2-yl]-benzyl}-2H-pyridazin-3-one dihydrogenphosphate anhydrate]
SS Residue: H1
